# Earlier results, collected in US12065435B2, “Compounds for the treatment of glycogen storage disorders” (HADASIT MEDICAL RESEARCH SERVICES AND DEVELOPMENT LTD., priority 2017, dated 2024).
# At least one structure is not confirmed: it was looked up by name or label, or the drawing left a doubt.
# Key:
# GS = conditions: rapamycin; cited from earlier work
# APBD modeling neurons = conditions: cited from earlier work
# [1] = system: mice modeling the GSD Pompe Disease; conditions: mouse, in vivo; cited from earlier work
compound,measurement,setting,value
CO[C@H]1C[C@@H]2CC[C@@H](C)[C@@](O)(O2)C(=O)C(=O)N2CCCC[C@H]2C(=O)O[C@H]([C@H](C)C[C@@H]2CC[C@@H](O)[C@H](OC)C2)CC(=O)[C@H](C)/C=C(\C)[C@@H](O)[C@@H](OC)C(=O)[C@H](C)C[C@H](C)/C=C/C=C/C=C/1C [rapamycin],reduction of GS activity,GS,70%
same,PG in APBD modeling neurons,APBD modeling neurons,reduced PG
same,glycogen in mice modeling the GSD Pompe Disease,[1],reduced
